Results: publication PMC5096027 (Chembiochem, 2016)

Assay: solid-phase peptide synthesis
Conditions: whole synthesis

Substance	isolated yield [%]
Ac-Ala-(NMe-D-BrTyr)-(4-MePro-Tz)-(D-Leu)-(NMe-Phe)-Opp	2
Piv-Ala-(NMe-D-BrTyr)-(4-MePro-Tz)-(D-Leu)-(NMe-Phe)-Opp	2
Piv-Ala-(NMe-D-BrTyr)-(4-MePro-Tz)-(D-Leu)-Ala-Opp	3
Piv-Ala-(NMe-D-BrTyr)-(4-MePro-Tz)-Ala-(NMe-Phe)-Opp	8
Piv-Ala-Ala-(4-MePro-Tz)-(D-Leu)-(NMe-Phe)-Opp	3

Same assay, conditions: whole synthesis, overall

Substance	isolated yield [%]
Piv-Ala-(NMe-D-BrTyr)-(4-MePro-Tz)-(D-Leu)-(NMe-Phe)-Ala-NH2	16
